PubChem BioAssay AID1508597, Cure First, 2020

- Test: 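Survival screen with siRNA in ovarian cancer cells derived from patients, with or without rucaparib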 (primary screen)
- Cells: human ovarian carcinoma lines grown from tumours: OCI-P5x (papillary serous) and OCI-C5x (clear cell)
- Reagent: siRNA pool against human genes, 1.25 pmol siRNA per well
- Timing: 72 h or 96 h, depending on the cell culture
- Treatment: rucaparib 20 µM (about IC30) or vehicle, present until read-out
- Rucaparib or vehicle: Vehicle
- Cell line: OCI-P5x (serous)
- Measurement: 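Luminescent ATP-based viability assay read 72 or 96 h after transfection, depending on culture, given as normalised percent viability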
- Reading the numbers: viability, normalised: higher = more viable cells remaining
- Rule for the call: 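Active when normalised viability falls below 80 percent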
- Calls: active = viability under 80%; inactive = viability 80% or more
Shown is an unselected part of the about 2,100 reagents, under one of the conditions tested. 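Calls flag viability under 80% in either arm, not effects specific to rucaparib; the reference for percent is not stated.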 Unmarked entries are inactive. Some reagents were tested in more than one well and are listed for each. Reagent sequences are not shown. The record does not give: the 100% reference.

| Target gene | technical replicate | viability, normalised (%) |
| --- | --- | --- |
| MLLT10 | 1 | 52.5 (active) |
| MLLT10 | 2 | 50.6 (active) |
| MLLT10 | 3 | 57.2 (active) |
| GLRA2 | 1 | 66.9 (active) |
| GLRA2 | 2 | 69 (active) |
| GLRA2 | 3 | 76.9 (active) |
| PIK3C3 | 1 | 77.9 (active) |
| PIK3C3 | 2 | 78.8 (active) |
| PIK3C3 | 3 | 98.6 |
| APBB1 | 1 | 43.4 (active) |
| APBB1 | 2 | 51.5 (active) |
| APBB1 | 3 | 45 (active) |
| TBK1 | 1 | 71.3 (active) |
| TBK1 | 2 | 47.2 (active) |
| TBK1 | 3 | 41.2 (active) |
| BRD4 | 1 | 57.5 (active) |
| BRD4 | 1 | 64.5 (active) |
| BRD4 | 1 | 138 |
| BRD4 | 1 | 71.1 (active) |
| BRD4 | 2 | 56.5 (active) |
| BRD4 | 2 | 69.2 (active) |
| BRD4 | 2 | 64.1 (active) |
| BRD4 | 2 | 132 |
| BRD4 | 3 | 74.4 (active) |
| BRD4 | 3 | 57.2 (active) |
| BRD4 | 3 | 107 |
| BRD4 | 3 | 66.9 (active) |
| ARID1A | 1 | 63.8 (active) |
| ARID1A | 2 | 53 (active) |
| ARID1A | 3 | 76.7 (active) |
| PRDM7 | 1 | 63.9 (active) |
| PRDM7 | 2 | 68.8 (active) |
| PRDM7 | 3 | 87.6 |
| MAP2K3 | 1 | 70.1 (active) |
| MAP2K3 | 1 | 95.1 |
| MAP2K3 | 2 | 69.7 (active) |
| MAP2K3 | 2 | 80.7 |
| MAP2K3 | 3 | 46.7 (active) |
| MAP2K3 | 3 | 79.9 (active) |
| MYLK3 | 1 | 60.1 (active) |
| MYLK3 | 2 | 53.6 (active) |
| MYLK3 | 3 | 60.1 (active) |
| GRK5 | 1 | 128 |
| GRK5 | 2 | 88.8 |
| GRK5 | 3 | 116 |
| CHMP5 | 1 | 42.3 (active) |
| CHMP5 | 2 | 63.7 (active) |
| CHMP5 | 3 | 57.8 (active) |
| ACE | 1 | 48.2 (active) |
| ACE | 2 | 51.5 (active) |
| ACE | 3 | 46.5 (active) |
| PRKAG3 | 1 | 85.3 |
| PRKAG3 | 2 | 73.9 (active) |
| PRKAG3 | 3 | 94.7 |
| PGK2 | 1 | 93.7 |
| PGK2 | 2 | 99.6 |
| PGK2 | 3 | 83.2 |

4 of these entries, set out differently.
Target gene | technical replicate | viability, normalised (%)
GRK5 | 2 | 88.8
GRK5 | 3 | 116
CHMP5 | 1 | 42.3 (active)
CHMP5 | 2 | 63.7 (active)
